Construct, isoform or probe ends are uncertain for at least one entry. For part of these data: Protein sequences can lack the tags named with them.
How the values were obtained:
Assay in all cases: DNase I footprinting
[1] = target: T1, MotB-His (Escherichia phage T4) (UniProt Q01437); settings: MotB alone, 40 mM Tris-acetate pH 7.9, 150 mM potassium glutamate, 4 mM magnesium acetate, 0.1 mM EDTA, 0.1 mM DTT, 0.1 mg/mL BSA, 0.05 pmol DNA in 10 uL, recombinant protein, protein details: His
T1 sequence (looked up, limits assumed): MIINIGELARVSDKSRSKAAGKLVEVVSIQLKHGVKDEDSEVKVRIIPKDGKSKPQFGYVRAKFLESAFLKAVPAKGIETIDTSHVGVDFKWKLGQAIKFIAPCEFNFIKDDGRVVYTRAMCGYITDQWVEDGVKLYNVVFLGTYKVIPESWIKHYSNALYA

[2] = target: T2, H-NS (UniProt P0ACF8); settings: H-NS alone, 40 mM Tris-acetate pH 7.9, 150 mM potassium glutamate, 4 mM magnesium acetate, 0.1 mM EDTA, 0.1 mM DTT, 0.1 mg/mL BSA, 0.05 pmol DNA in 10 uL, recombinant protein
T2 sequence (looked up, limits assumed): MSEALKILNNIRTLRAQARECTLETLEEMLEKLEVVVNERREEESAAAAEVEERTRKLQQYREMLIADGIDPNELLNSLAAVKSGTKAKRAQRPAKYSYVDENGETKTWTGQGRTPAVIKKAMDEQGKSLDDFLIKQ

[3] = test system: MotB-His + H-NS; settings: both proteins, 40 mM Tris-acetate pH 7.9, 150 mM potassium glutamate, 4 mM magnesium acetate, 0.1 mM EDTA, 0.1 mM DTT, 0.1 mg/mL BSA, 0.05 pmol DNA in 10 uL, recombinant protein, protein details: His

Measured: binding result

GCTCGCATCAATATTCATGCCACATTTGCCATCAGGGGTTGCCTCAGATTCTCAGTATGTTAGGGTAGAAAAAAGTGACTATTTCCATTGGGTAATATATCGACATAGACAAATAAAGGAATCTTTCTATTGCATGGCAATTAAATTAGAAATTAAAAATCTTTATAAAATATTTGGCGAGCATCCACAGCGAGCGTTCAAATATATCGAACAAGGACTTTCAAAAGAACAAATTCTGGAAAAAACTGGGCTATCGCTTGGCGTAAAAGACG (double strand) [PproV fragment (272 bp)]
binds: [1]; near-complete protection only at ~2.4 MotB monomers:1 bp (32 pmol), no significant change at lower levels, label: 5'-32P | [2]; 4-32 pmol, protects regions downstream of TSS, label: 5'-32P | [3]; together or sequential, MotB-like complete protection at 16 pmol MotB, possibly cooperative, label: 5'-32P

CTTCTTCCCGCTGGAAATCTGACGTTATTCGTTTTGTTCATCCAGTAGGATTTGGATTTATAGCAATTACCCTTTTAACAATGTTTATTAATGTTGGTTTAACTCTTAAACATACAGAGACTATAATTAATAAATACAAAAACTATAAATGGGATTCTGGATTGCCTACTGAATATGCCGACAGAATAGCTAAATTAACTCCAACCGGTGAAATTGAG (double strand) [Pl8 fragment (T4 late gene 8 promoter)]
binds: [1]; total protection at 2.9 MotB:1 bp, none at lower levels, label: 5'-32P on nontemplate strand | [2]; protects portions of the DNA, label: 5'-32P on nontemplate strand | [3]; pattern resembles MotB, not H-NS, label: 5'-32P on nontemplate strand
